Experimental data: article PMC4546478
These are yes or no findings as the source states them, for the method shown. In cells and extracts the contact can be indirect. Some entries that bind do so weakly or less than the wild type.

Sequences of proteins named here, by UniProt entry; tags and fusion partners are left off.
UniProt P49841: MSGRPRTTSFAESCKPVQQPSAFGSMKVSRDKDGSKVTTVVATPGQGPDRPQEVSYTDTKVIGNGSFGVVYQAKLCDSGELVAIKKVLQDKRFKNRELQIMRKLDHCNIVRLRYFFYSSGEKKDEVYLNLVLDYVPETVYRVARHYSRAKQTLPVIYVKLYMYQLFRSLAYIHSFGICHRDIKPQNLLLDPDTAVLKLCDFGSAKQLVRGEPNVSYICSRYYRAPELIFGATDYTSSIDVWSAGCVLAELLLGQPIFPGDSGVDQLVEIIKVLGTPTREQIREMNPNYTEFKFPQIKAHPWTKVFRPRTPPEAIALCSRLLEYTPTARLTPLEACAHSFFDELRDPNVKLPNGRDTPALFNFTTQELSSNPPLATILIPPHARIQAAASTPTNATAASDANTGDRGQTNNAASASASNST

What was measured:
[1] = target: glycogen synthase kinase 3β (human (endogenous in PCI55)) (UniProt P49841); test: co-IP; endogenous proteins; lysates of PCI55 cells immunoprecipitated and blotted with the indicated antibodies; details in the Supplementary Materials and Methods
[2] = target: phospho-glycogen synthase kinase 3β (human (endogenous in PCI55)) (UniProt P49841); test: as above

Substance: Pim-3 kinase (from UniProt Q86V86 1-326) (enzyme)
- binding [1]: binds
- binding [2]: binds
